# In US9029295B2, “Pyridazinone compound and herbicide and noxious arthropod controlling agent comprising it” (Sumitomo Chemical Company, Limited, priority 2010, dated 2015):
# Some entries share one result that the patent states for a list of compounds.
# Assays:
# Type in all cases: in vivo
# Echinochloa crus-galli = experiment: Post-emergence treatment test in dry field (Test Example 1-1); conditions: treatment amount 1,000 g/10,000 m^2; sprayed onto whole plants at first to second leaf stage; twenty days after treatment; 0 = no effect, 10 = complete death
# Lolium multiflorum = experiment: Pre-emergence treatment test in dry field (Test Example 2-1); conditions: treatment amount 1,000 g/10,000 m^2; sprayed onto soil surface after sowing; twenty days after treatment; 0 = no effect, 10 = complete death
# Galium aparine = experiment: Post-emergence treatment test in dry field (Test Example 1-2); conditions: treatment amount 1,000 g/10,000 m^2; sprayed onto whole plants at first to second leaf stage; twenty days after treatment; 0 = no effect, 10 = complete death
Structure (SMILES),"controlling effect of the compound on Echinochloa crus-galli, visually evaluated, rated in 11 levels from 0 to 10 (Echinochloa crus-galli)","controlling effect of the compound on Lolium multiflorum, visually evaluated, rated in 11 levels from 0 to 10 (Lolium multiflorum)","controlling effect of the compound on Galium aparine, visually evaluated, rated in 11 levels from 0 to 10 (Galium aparine)"
CCc1cc(CC)c(-c2c(O)c(N(C)C)nn(C)c2=O)c(CC)c1 [(I-1-3)],≥ 9,≥ 9,≥ 9
CCc1cc(C)cc(C)c1-c1c(O)c(S(C)(=O)=O)nn(C)c1=O [(I-3-3)],≥ 9,≥ 9,
CCOc1nn(C)c(=O)c(-c2c(CC)cc(CC)cc2CC)c1O [(I-4-4)],≥ 9,≥ 9,
CCc1cc(C)cc(CC)c1-c1c(OS(C)(=O)=O)c(OC)nn(C)c1=O [(I-5-8)],≥ 9,≥ 9,
CCCOc1nn(C)c(=O)c(-c2c(CC)cc(C)cc2CC)c1O [(I-9-2)],≥ 9,≥ 9,
CCCCOc1nn(C)c(=O)c(-c2c(CC)cc(C)cc2CC)c1O [(I-9-3)],≥ 9,≥ 9,
CCc1cc(C)cc(CC)c1-c1c(O)c(OC(C)C)nn(C)c1=O [(I-9-4)],≥ 9,≥ 9,
CCc1cc(C)cc(CC)c1-c1c(O)c(OCC2CC2)nn(C)c1=O [(I-9-5)],≥ 9,≥ 9,
CCc1cc(C)cc(CC)c1-c1c(O)c(OCC(F)F)nn(C)c1=O [(I-9-6)],≥ 9,≥ 9,
CCc1cc(C)cc(CC)c1-c1c(O)c(OCC(F)(F)F)nn(C)c1=O [(I-9-7)],≥ 9,≥ 9,
CCc1cc(C)cc(CC)c1-c1c(O)c(OCC(N)=O)nn(C)c1=O [(I-9-9)],≥ 9,≥ 9,
C#CCOc1nn(C)c(=O)c(-c2c(CC)cc(C)cc2CC)c1O [(I-10-2)],≥ 9,≥ 9,
CCOc1nn(C)c(=O)c(-c2c(C)cc(C)cc2Br)c1O [(I-12-2)],≥ 9,≥ 9,
CCOc1nn(CC2CC2)c(=O)c(-c2c(CC)cc(C)cc2CC)c1O [(I-12-3)],≥ 9,≥ 9,
CCc1cc(C)cc(CC)c1-c1c(O)c(OC)nn(CC2CC2)c1=O [(I-13-3)],≥ 9,≥ 9,
CCc1cc(C)cc(CC)c1-c1c(OCc2ccccc2)c(OC)nn(C)c1=O [(I-21-2)],≥ 9,,
CCOc1nn(C)c(=O)c(-c2c(CC)cc(C)cc2CC)c1OCc1ccccc1 [(I-21-3)],≥ 9,,
CCOc1nn(C)c(=O)c(-c2c(CC)cc(C)cc2CC)c1O [Compound (I-4-3)],≥ 9,≥ 9,

Structure (SMILES),"controlling effect of the compound on Echinochloa crus-galli, visually evaluated, rated in 11 levels from 0 to 10 (Echinochloa crus-galli)","controlling effect of the compound on Lolium multiflorum, visually evaluated, rated in 11 levels from 0 to 10 (Lolium multiflorum)","controlling effect of the compound on Galium aparine, visually evaluated, rated in 11 levels from 0 to 10 (Galium aparine)"
CCOc1nn(C)c(=O)c(-c2c(C)cc(C)cc2CC)c1O [Compound (I-4-6)],≥ 9,≥ 9,
"CCc1cc(C)cc(CC)c1-c1c(O)c(OCOC)nn(C)c1=O [Compound (I-9-1), 4-(2,6-diethyl-4-methylphenyl)-6-methoxymethoxy-5-hydroxy-2-methyl-3(2H)-pyridazinone]",≥ 9,,
"C=CCOc1nn(C)c(=O)c(-c2c(CC)cc(C)cc2CC)c1O [Compound (I-10-1), 4-(2,6-diethyl-4-methylphenyl)-6-allyloxy-5-hydroxy-2-methyl-3(2H)-pyridazinone]",≥ 9,≥ 9,
CCc1cc(C)cc(CC)c1-c1c(O)c(OCC#N)nn(C)c1=O [Compound (I-10-3)],≥ 9,≥ 9,
"CCc1cc(C)cc(CC)c1-c1c(OCOC)c(OCOC)nn(C)c1=O [Compound (I-11), 4-(2,6-diethyl-4-methylphenyl)-5,6-bis(methoxymethoxy)-2-methyl-3(2H)-pyridazinone]",≥ 9,,
"CCc1cc(C)cc(CC)c1-c1c(O)c(OC)nn(Cc2ccccc2)c1=O [Compound (I-13-1), 4-(2,6-diethyl-4-methylphenyl)-6-methoxy-5-hydroxy-2-benzyl-3(2H)-pyridazinone]",,≥ 9,
COc1nn(C)c(=O)c(-c2ccccc2OC(F)(F)F)c1O [Compound (I-13-6)],≥ 9,≥ 9,
"CCc1cc(C)cc(CC)c1-c1c(O)c(N)nn(C)c1=O [Compound (I-17), 4-(2,6-diethyl-4-methylphenyl)-6-amino-5-hydroxy-2-methyl-3(2H)-pyridazinone]",≥ 9,≥ 9,
"CCc1cc(C)cc(CC)c1-c1c(O)c(NC(C)=O)nn(C)c1=O [Compound (I-22), 4-(2,6-diethyl-4-methylphenyl)-6-acetamido-5-hydroxy-2-methyl-3(2H)-pyridazinone]",≥ 9,≥ 9,
"CCc1cc(C)cc(CC)c1-c1c(O)c([N+](=O)[O-])nn(C)c1=O [Compound (I-23), 4-(2,6-diethyl-4-methylphenyl)-6-nitro-5-hydroxy-2-methyl-3(2H)-pyridazinone]",≥ 9,,≥ 9
"CCc1cc(C)cc(CC)c1-c1c(O)c(CO)nn(C)c1=O [Compound (I-24-1), 4-(2,6-diethyl-4-methylphenyl)-6-hydroxymethyl-5-hydroxy-2-methyl-3(2H)-pyridazinone]",≥ 9,≥ 9,
"CCc1cc(C)cc(CC)c1-c1c(O)c(C=O)nn(C)c1=O [Compound (I-25-1), 4-(2,6-diethyl-4-methylphenyl)-6-formyl-5-hydroxy-2-methyl-3(2H)-pyridazinone]",≥ 9,≥ 9,
"CCc1cc(C)cc(CC)c1-c1c(O)c(C=NO)nn(C)c1=O [Compound (I-26-1), 4-(2,6-diethyl-4-methylphenyl)-6-hydroxyiminomethyl-5-hydroxy-2-methyl-3(2H)-pyridazinone]",≥ 9,,≥ 9
"CCc1cc(CC)c(-c2c(O)c(C=NO)nn(C)c2=O)c(CC)c1 [Compound (I-26-2), 4-(2,4,6-triethylphenyl)-6-hydroxyiminomethyl-5-hydroxy-2-methyl-3(2H)-pyridazinone]",≥ 9,,≥ 9
"CCc1cc(C)cc(CC)c1-c1c(OC(C)=O)c(C#N)nn(C)c1=O [Compound (I-27-1), 4-(2,6-diethyl-4-methylphenyl)-6-cyano-5-acetoxy-2-methyl-3(2H)-pyridazinone]",≥ 9,,≥ 9
"CCc1cc(CC)c(-c2c(OC(C)=O)c(C#N)nn(C)c2=O)c(CC)c1 [Compound (I-27-2), 4-(2,4,6-triethylphenyl)-6-cyano-5-acetoxy-2-methyl-3(2H)-pyridazinone]",≥ 9,,≥ 9
"CCc1cc(C)cc(CC)c1-c1c(O)c(C#N)nn(C)c1=O [Compound (I-28-1), 4-(2,6-diethyl-4-methylphenyl)-6-cyano-5-hydroxy-2-methyl-3(2H)-pyridazinone]",≥ 9,,≥ 9
"CCc1cc(C)cc(CC)c1-c1c(O)c(COC)nn(C)c1=O [Compound (I-33-1), 4-(2,6-diethyl-4-methylphenyl)-6-methoxymethyl-5-hydroxy-2-methyl-3(2H)-pyridazinone]",≥ 9,≥ 9,
